For one molecule, logD results are on record in ChEMBL document CHEMBL4049430, “Indazole-6-phenylcyclopropylcarboxylic Acids as Selective GPR120 Agonists with in Vivo Efficacy” (J Med Chem, 2017).

The series in a line: Octanol-buffer partition coefficient, log D of the compound at pH 7.4 after 30 mins by LC-UV based shake-flask method. Conditions: octanol/water.

`Cc1ccc(-n2nc(C)c3ccc(-c4ccc([C@H]5C[C@@H]5C(=O)O)cc4)cc32)cc1` displayed a logD at 0.5 h of 3.8.

Usually logD stands for the decadic logarithm of the distribution of all forms, ionised or not, between an organic phase and buffer at a given pH. The low end stands for a more hydrophilic compound, the high end for a more lipophilic compound.
